{"source": "PubChem BioAssay AID1259308 (NCATS, 2017)", "assay": "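Candidate targets for better recombinant protein yield in mammalian cells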 (primary screen)", "system": "human HEK293 embryonic kidney cells stably expressing firefly luciferase (HEK-CMV-Luc2-Hygro)", "knock-down reagent": "single siRNA against human genes, 0.8 pmol siRNA per well", "time to read-out": "72 h", "measured": "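Reporter luminescence and viable-cell signal on separate replicate plates, given as percent of non-targeting control and median/MAD z-scores, plus per-cell luciferase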", "reading the numbers": "total luciferase, z-score: higher = more reporter protein produced", "active means": "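An siRNA counts as active if its total luciferase robust z-score exceeds 3; genes with two or more such siRNAs out of three were retested with fresh siRNAs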", "meaning of the calls": "active = raised luciferase; inactive = no rise", "note": "In all, the deposit lists about 59,000 reagents; below is a part drawn at random. Of all reagents, about 1,510 (2.6%) got an active call. 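Calls use total luciferase alone and ignore viability, so some active siRNAs may act by altering cell number.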 The numbers tell different reagents against one gene apart. Further read-outs or replicates are left out here."}
{"gene": "ARAP1", "siRNA no.": 1, "total luciferase, z-score": -1.98, "call": "inactive"}
{"gene": "ARAP1", "siRNA no.": 2, "total luciferase, z-score": -0.233, "call": "inactive"}
{"gene": "ARAP1", "siRNA no.": 3, "total luciferase, z-score": 0.621, "call": "inactive"}
{"gene": "TAOK1", "siRNA no.": 1, "total luciferase, z-score": 0.609, "call": "inactive"}
{"gene": "TAOK1", "siRNA no.": 2, "total luciferase, z-score": -0.0666, "call": "inactive"}
{"gene": "TAOK1", "siRNA no.": 3, "total luciferase, z-score": -0.525, "call": "inactive"}
{"gene": "SDHAF1", "siRNA no.": 1, "total luciferase, z-score": 0.19, "call": "inactive"}
{"gene": "SDHAF1", "siRNA no.": 2, "total luciferase, z-score": -0.527, "call": "inactive"}
{"gene": "SDHAF1", "siRNA no.": 3, "total luciferase, z-score": 1.07, "call": "inactive"}
{"gene": "TM9SF1", "siRNA no.": 1, "total luciferase, z-score": -0.511, "call": "inactive"}
{"gene": "TM9SF1", "siRNA no.": 2, "total luciferase, z-score": 2.2, "call": "inactive"}
{"gene": "TM9SF1", "siRNA no.": 3, "total luciferase, z-score": 0.104, "call": "inactive"}
{"gene": "TRABD2B", "siRNA no.": 1, "total luciferase, z-score": 0.67, "call": "inactive"}
{"gene": "TRABD2B", "siRNA no.": 2, "total luciferase, z-score": -1.99, "call": "inactive"}
{"gene": "TRABD2B", "siRNA no.": 3, "total luciferase, z-score": 2.04, "call": "inactive"}
{"gene": "BRIX1", "siRNA no.": 1, "total luciferase, z-score": -0.988, "call": "inactive"}
{"gene": "BRIX1", "siRNA no.": 2, "total luciferase, z-score": -2.06, "call": "inactive"}
{"gene": "BRIX1", "siRNA no.": 3, "total luciferase, z-score": -1.66, "call": "inactive"}
{"gene": "NDEL1", "siRNA no.": 1, "total luciferase, z-score": 0.092, "call": "inactive"}
{"gene": "NDEL1", "siRNA no.": 2, "total luciferase, z-score": 0.0898, "call": "inactive"}
{"gene": "NDEL1", "siRNA no.": 3, "total luciferase, z-score": 0.516, "call": "inactive"}

3 of these entries, reformatted.
{"gene":"SDHAF1","siRNA no.":3,"total luciferase, z-score":1.07,"call":"inactive"}
{"gene":"TM9SF1","siRNA no.":1,"total luciferase, z-score":-0.511,"call":"inactive"}
{"gene":"TM9SF1","siRNA no.":2,"total luciferase, z-score":2.2,"call":"inactive"}
